Some of the results follow.
Target: OsWRKY34 (Oryza sativa, UniProt Q0JBA9 1-250)
Test: protein-binding microarray (RPBM); PBS, 2% BSA, 51.3 ng/ul salmon testes DNA, 50 uM zinc acetate, 200 nM TF, 25 C, 1 h; high values mean tight binding
Details: protein: recombinant; tags: N-terminal polyhistidine and DsRed monomer fusion (pET32a); label: CyDye5-dUTP incorporated in the synthesized complementary strand; 3' TTTTT single-stranded linker to array surface; dsDNA, one strand shown
Summary of the method: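 For the binding signal, per-feature fluorescence intensity was read in arbitrary units on an Axon 4000B scanner. Before scanning, a 2% BSA-blocked custom Agilent array made double-stranded with Cy5-dUTP was washed after 1 h at 25 °C with 200 nM protein and 50 µM zinc acetate. The proteins were Ni–NTA-purified transcription factors with N-terminal polyhistidine and DsRed fusions, expressed in E. coli BL21-CodonPlus.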

Amino acid sequences for entries named in this document (tags omitted).
UniProt Q0JBA9, entry or part of it: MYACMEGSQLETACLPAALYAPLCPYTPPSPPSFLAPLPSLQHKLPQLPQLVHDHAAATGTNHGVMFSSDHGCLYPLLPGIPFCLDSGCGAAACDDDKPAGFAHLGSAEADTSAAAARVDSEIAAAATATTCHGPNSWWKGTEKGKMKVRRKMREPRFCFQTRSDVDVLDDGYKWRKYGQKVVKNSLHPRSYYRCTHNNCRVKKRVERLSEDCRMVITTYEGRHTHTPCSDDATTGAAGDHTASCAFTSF

First: TCCGGTCAAACACCACACACCTGACCGTTTCGCCGCCGCGCGGAGTCACCTAGTGCAG
Second: CCACCACTCATTTATGTTGGACCAACTCTTCTCGCCCTAACGGAGTCACCTAGTGCAG
The binding signal of the first is lower: 8630 fluorescence intensity (a.u.) for the first, 8970 fluorescence intensity (a.u.) for the second.

Compared with “CCGCACGCACGCTTTTTAAACTGTTAAACGATGTGTTTTTCGGAGTCACCTAGTGCAG”, “CGCCGCTACCATCCAATCCACCCCACTCCATTCTCTCATCCGGAGTCACCTAGTGCAG” is higher in binding signal: 10400 fluorescence intensity (a.u.) for the first, 11600 fluorescence intensity (a.u.) for the second.

Compared with “CCTCAACCTCTCATTGCCGTTCTGCCGTCAAGAAAATAAGCGGAGTCACCTAGTGCAG”, “ATATATATATATATATATATATATATATATATATAATGGGCGGAGTCACCTAGTGCAG” is lower in binding signal: 8250 fluorescence intensity (a.u.) for the first, 8180 fluorescence intensity (a.u.) for the second.

First: GCTTGGTCTATAAGTTGCTGCTCTGCCCTGCTCGGCCTCACGGAGTCACCTAGTGCAG
Second: ATGTTTGACCGTTCGTCTTATTCAAAAATTTTAAGTAATTCGGAGTCACCTAGTGCAG
The binding signal of the first is higher: 12000 fluorescence intensity (a.u.) for the first, 8760 fluorescence intensity (a.u.) for the second.

First: GGACTTACATCCAATGTTTATAGGGGTATTTAGATTTTTTCGGAGTCACCTAGTGCAG
Second: ATCTCGTGACGTCTCCCGCTCCCGCTCGCGTTGCTCCCAACGGAGTCACCTAGTGCAG
The binding signal of the first is higher: 11000 fluorescence intensity (a.u.) for the first, 10200 fluorescence intensity (a.u.) for the second.

First: GTTGTCTCTATCCCCACCGGCACCGCTCGCTGCTTCCATGCGGAGTCACCTAGTGCAG
Second: CTTCGCTTGTCCGGCCAGAAGCTCTTTCTTCACATTTGCTCGGAGTCACCTAGTGCAG
The binding signal of the first is lower: 8040 fluorescence intensity (a.u.) for the first, 8460 fluorescence intensity (a.u.) for the second.

First: GGAGACGTTATATCTGCTACTGTGGTTGTGGGAGGTGATTCGGAGTCACCTAGTGCAG
Second: TATAGTTTTATATGATCCCAATTGATGTTACTTATTTTTTCGGAGTCACCTAGTGCAG
The binding signal of the first is lower: 8110 fluorescence intensity (a.u.) for the first, 10200 fluorescence intensity (a.u.) for the second.

First: TGGGATGGTGAAGTTGCTATAGAGATAGTTTTGGTTTGCCCGGAGTCACCTAGTGCAG
Second: AGTCTGAACTAGTAGCTTGCCCACTCTGCTTCCTTTTATACGGAGTCACCTAGTGCAG
The binding signal of the first is higher: 10100 fluorescence intensity (a.u.) for the first, 8780 fluorescence intensity (a.u.) for the second.

First: TCTCTCTCTCTCTCCTCTGCATCCGCGCGCATTGCTCGATCGGAGTCACCTAGTGCAG
Second: GCCCGCCGCACTGGCCTGCCGCGCGCCCGCGCCTAGCTCCCGGAGTCACCTAGTGCAG
The binding signal of the first is higher: 9000 fluorescence intensity (a.u.) for the first, 8100 fluorescence intensity (a.u.) for the second.

Compared with “CCTCACCTCTCCTAGCTAGTCCGATGAGATTCCTCGCCACCGGAGTCACCTAGTGCAG”, “AGGTCGGGCAGGCGGTTGGGAAATACCCGCCCTATTTTCACGGAGTCACCTAGTGCAG” is lower in binding signal: 9750 fluorescence intensity (a.u.) for the first, 9520 fluorescence intensity (a.u.) for the second.

Compared with “AGTTTCCGAAAAATATGTCCAGCTTATCTCAACTGCGCCACGGAGTCACCTAGTGCAG”, “CCTCTGTCTCTTGTCTCTCCTGATTCCCTTCGACCGACCGCGGAGTCACCTAGTGCAG” is higher in binding signal: 8560 fluorescence intensity (a.u.) for the first, 10200 fluorescence intensity (a.u.) for the second.

Going from “TGGTGGTGGTGCTAGGTAGCTAGCTAGTAGTAGTTTTTCTCGGAGTCACCTAGTGCAG” to “GTACACACGCCCTGCCAAATTGACTGACCGCATCCTCGTCCGGAGTCACCTAGTGCAG”, the binding signal falls from 9620 fluorescence intensity (a.u.) to 8940 fluorescence intensity (a.u.).

First: CTTTACCACCTCTTCCTAACTTTCACTTGCTTGTTTTTCACGGAGTCACCTAGTGCAG
Second: TTACTTTCCAGTCCAATTTCCAAGCTACCACGGTATTTATCGGAGTCACCTAGTGCAG
The binding signal of the first is higher: 9720 fluorescence intensity (a.u.) for the first, 8192 fluorescence intensity (a.u.) for the second.

Compared with “TGTCCTACCATCTTTCCATCCCCATTGGCGCCAACCTTTCCGGAGTCACCTAGTGCAG”, “TTTGCGCTGCTCTTTCCTCACATATTGATCACATTTGCCACGGAGTCACCTAGTGCAG” is lower in binding signal: 10900 fluorescence intensity (a.u.) for the first, 9540 fluorescence intensity (a.u.) for the second.

First: ACACACAAACTTTCAACTTTTCTGTCACATCGTTCCAATTCGGAGTCACCTAGTGCAG
Second: CATCTATCCTGTTCCAAGAAGCCCCGTTCTTTTCTCCAACCGGAGTCACCTAGTGCAG
The binding signal of the first is higher: 9750 fluorescence intensity (a.u.) for the first, 9520 fluorescence intensity (a.u.) for the second.

First: CGCACGATGCATCCTTCATCCTGGCCTCACGGCATCGTTCCGGAGTCACCTAGTGCAG
Second: AGGCGCTCCATAGGCCTCGTCATCTTCACAGTCACACACCCGGAGTCACCTAGTGCAG
The binding signal of the first is lower: 8320 fluorescence intensity (a.u.) for the first, 11200 fluorescence intensity (a.u.) for the second.

Compared with “TGTTCTTGGTCGCCGCCATGTCCTCGCCGCCGTCTGATCCCGGAGTCACCTAGTGCAG”, “TTTTTTTGCGGGGTTTTTCCAATGTATCGATCATTGTTGACGGAGTCACCTAGTGCAG” is lower in binding signal: 11100 fluorescence intensity (a.u.) for the first, 10800 fluorescence intensity (a.u.) for the second.

First: CAATCAATCTCGAGCTCTCCGCCAATACAAACTTGACAACCGGAGTCACCTAGTGCAG
Second: GGAGGTGGAGGGGTAAGGTGTGGGATCGCGGTGACGCCGCCGGAGTCACCTAGTGCAG
The binding signal of the first is lower: 8250 fluorescence intensity (a.u.) for the first, 10400 fluorescence intensity (a.u.) for the second.

Compared with “TGAAGGGCGGGAGGGGCGTTGCGCGGGAGTGGCCGCGCGGCGGAGTCACCTAGTGCAG”, “TTTTCTCTCACTTACATATGGGCCCCATGTACCTTTTTTTCGGAGTCACCTAGTGCAG” is higher in binding signal: 8670 fluorescence intensity (a.u.) for the first, 9310 fluorescence intensity (a.u.) for the second.

Compared with “TTTCGTCATGTCTTCATCTTCGGTTGCTAGGTCACGCCGTCGGAGTCACCTAGTGCAG”, “ACGTGGTCCCGGGCATCTAGCATTCTACCCGCAATGGTTGCGGAGTCACCTAGTGCAG” is higher in binding signal: 9980 fluorescence intensity (a.u.) for the first, 10400 fluorescence intensity (a.u.) for the second.

Compared with “ATATGGCGCGCTACGGATGGTTGTGGTGGGGAAAAAGCCCCGGAGTCACCTAGTGCAG”, “GGGTGATATATTTCATATTAATCTATGTTGTTAATTTTTTCGGAGTCACCTAGTGCAG” is higher in binding signal: 8380 fluorescence intensity (a.u.) for the first, 10600 fluorescence intensity (a.u.) for the second.
